Measured values from patent US20110091952A1.
Results are given in words; binding and its absence hold for the method and conditions named. Some results given as binding are weak or reduced against the parent protein; the word gives no strength. Sequences can lack the tags named with a protein.

Target: CurM TE, C-terminal His-tagged single domain construct (pET24b::TE) (Lyngbya majuscula)
Assay: analytical size-exclusion chromatography (self-association, homodimer)

B1: CurM TE, C-terminal His-tagged single domain construct (pET24b::TE) (enzyme, not shown: small tags and cut ends)
chain: MEEKFLEFGGNQICLCSWGSPEHPVVLCIHGILEQGLAWQEVALPLAAQGYRVVAPDLFGHGRSSHLEMVTSYSSLTFLAQIDRVIQELPDQPLLLVGHSMGAMLATAIASVRPKKIKELILVELPLPAEESKKESAVNQLTTCLDYLSSTPQHPIFPDVATAASRLRQAIPSLSEEFSYILAQRITQPNQGGVRWSWDAIIRTRSILGLNNLPGGRSQYLEMLKSIQVPTTLVYGDSSKLNRPEDLQQQKMTMTQAKRVFLSGGHNLHIDAAAALASLILTS
- binding: binds
